Source: publication PMC10269864
These are yes or no findings as the source states them, for the method shown. In cells and extracts the contact can be indirect. Here binding means that the protein was enriched with, or labelled near, the bait; the list need not be complete. Where a sequence is shown, tags or fusion partners need not be part of it.

Molecular target: T1, Hyponastic Leaves 1 (HYL1) tagged with the hemagglutinin (HA) epitope (pHYL1:HYL1:HA) (Arabidopsis thaliana) (UniProt O04492)
T1 sequence: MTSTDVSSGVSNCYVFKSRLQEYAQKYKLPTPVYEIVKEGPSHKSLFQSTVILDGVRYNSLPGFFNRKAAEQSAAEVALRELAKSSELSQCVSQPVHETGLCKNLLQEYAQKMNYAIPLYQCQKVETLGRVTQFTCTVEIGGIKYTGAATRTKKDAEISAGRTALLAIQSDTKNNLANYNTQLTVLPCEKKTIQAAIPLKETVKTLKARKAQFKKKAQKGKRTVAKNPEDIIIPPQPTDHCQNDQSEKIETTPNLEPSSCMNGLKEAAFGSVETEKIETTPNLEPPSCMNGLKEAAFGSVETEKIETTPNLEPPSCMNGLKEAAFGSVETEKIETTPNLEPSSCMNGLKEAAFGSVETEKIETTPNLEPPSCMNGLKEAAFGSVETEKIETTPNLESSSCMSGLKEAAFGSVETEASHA
Assay: affinity purification with mass spectrometry; nuclear extract of pHYL1:HYL1:HA plants, anti-HA antibodies overnight, Dynabeads protein G; washes with low-salt, high-salt (500 mM NaCl), LiCl buffers and TE; control IPs in Col-0

karyopherin enabling the transport of the cytoplasmic HYL1 (KETCH1) (from UniProt F4K2M5)
binding: binds

B1: cell division cycle 5 (CDC5) (protein, UniProt P92948 1-844)
chain: MRIMIKGGVWKNTEDEILKAAVMKYGKNQWARISSLLVRKSAKQCKARWYEWLDPSIKKTEWTREEDEKLLHLAKLLPTQWRTIAPIVGRTPSQCLERYEKLLDAACTKDENYDAADDPRKLRPGEIDPNPEAKPARPDPVDMDEDEKEMLSEARARLANTRGKKAKRKAREKQLEEARRLASLQKRRELKAAGIDGRHRKRKRKGIDYNAEIPFEKRAPAGFYDTADEDRPADQVKFPTTIEELEGKRRADVEAHLRKQDVARNKIAQRQDAPAAILQANKLNDPEVVRKRSKLMLPPPQISDHELEEIAKMGYASDLLAENEELTEGSAATRALLANYSQTPRQGMTPMRTPQRTPAGKGDAIMMEAENLARLRDSQTPLLGGENPELHPSDFTGVTPRKKEIQTPNPMLTPSMTPGGAGLTPRIGLTPSRDGSSFSMTPKGTPFRDELHINEDMDMHESAKLERQRREEARRSLRSGLTGLPQPKNEYQIVAQPPPEESEEPEEKIEEDMSDRIAREKAEEEARQQALLKKRSKVLQRDLPRPPAASLAVIRNSLLSADGDKSSVVPPTPIEVADKMVREELLQLLEHDNAKYPLDDKAEKKKGAKNRTNRSASQVLAIDDFDENELQEADKMIKEEGKFLCVSMGHENKTLDDFVEAHNTCVNDLMYFPTRSAYELSSVAGNADKVAAFQEEMENVRKKMEEDEKKAEHMKAKYKTYTKGHERRAETVWTQIEATLKQAEIGGTEVECFKALKRQEEMAASFRKKNLQEEVIKQKETESKLQTRYGNMLAMVEKAEEIMVGFRAQALKKQEDVEDSHKLKEAKLATGEEEDIAIAMEASA
binding: binds
